# Out of some 140,000 compounds screened, about 4,300 (3.1%) were called active. This list was built around the results that the source calls inconclusive (neither active nor inactive); the mix of calls is not that of the screen.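 Rule for the calls: active = readout at or below -70, meaning at least 70% loss of cells showing the perinucleolar compartment, a nuclear body marking cancer cells; inconclusive = readout between -30 and a set limit; inactive = the rest.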
# Test: High Content Assay for Compounds that inhibit the Assembly of the Perinucleolar Compartment;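 note: plate controls were DMSO wells for no effect and camptothecin positive control wells for full effect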
# Conditions: PC3M PTB-GFP, PNC prevalence imaging, 16 h; at 10 µM; stronger effect = lower value
# How it was run: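 Compounds are pinned in duplicate onto adhered PC3M cells stably expressing GFP-tagged PTB and incubated 16 h at 37 C. Cells are then fixed, nuclei stained with Hoechst, and PNC-positive cells counted.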
row,Structure (SMILES),"activity change (PNC), negative = inhibition"
1,CCn1c(COc2ccc3c(c2)OCO3)nnc1SCC(=O)c1ccccc1,inconclusive: -42.3%
2,COc1ccc(OC)c(C2CC(=O)c3c([nH]c(C(=O)OC(C)C)c3C)C2)c1 (stereo not drawn),inconclusive: -70%
3,Cc1cc(C(=O)Nc2sc3c(c2C#N)CCC(C(C)(C)C)C3)no1 (stereo not drawn),inconclusive: -34.3%
4,O=C(NCN1C(=O)C2C3C=CC(C3)C2C1=O)Nc1nccs1 (stereo not drawn),active: -100%
5,COc1ccc(OC)c2c1sc(=NC(=O)C(C)C)n2C,inconclusive: -40.3%
6,Cc1nc(-c2cccc(NS(C)(=O)=O)c2)cs1,inconclusive: -32.3%
7,Clc1ccc(Cn2c(/C=C/c3ccco3)nc3ccccc32)cc1,active: -84.2%
8,O=c1[nH]c2cc(Cl)c([N+](=O)[O-])nc2[nH]1,inactive: -25.6%
9,COc1ccccc1-c1cc(-c2ccc(C)cc2)nc(SCc2nnc(-c3ccccc3)o2)c1C#N,inactive: 27.3%
10,CC(=O)N1Cc2ccccc2CC1C(=O)O (stereo not drawn),inconclusive: -32.7%
11,CSc1ccccc1NC(=O)COc1ccc(Cl)cc1,inactive: -9.75%
12,O=C(Nc1ccc(C(F)(F)F)cc1)c1cc(-c2cccnc2)nc2ccc(Br)cc12,inactive: -0.978%
13,CCOC(=O)N1CCC(NS(=O)(=O)c2ccc3c(c2)CCN3C(C)=O)CC1,inconclusive: -30%
14,CC1CCc2sc(C(=O)N/N=C/c3ccc([N+](=O)[O-])cc3)cc2C1 (stereo not drawn),inconclusive: -38.3%
15,O=[N+]([O-])c1cc(S(=O)(=O)C(F)(F)F)ccc1N1CCN(c2ccccc2)CC1,inconclusive: -43.9%
16,O=C(N/N=C/c1ccc(OC(F)F)cc1)c1ccc(Br)cc1,inconclusive: -40.8%
17,O=C(Nc1sc2c(c1-c1nc3ccccc3[nH]1)CCCC2)C1CC1,inconclusive: -30.7%
18,COCCCNC(=O)CN1CCN(Cc2ccc(Cl)cc2)C1=O,inactive: -18.1%
19,O=C1CC(Sc2ncccn2)C(=O)N1c1ccccc1 (stereo not drawn),inconclusive: -66.1%
20,COc1cccc(C(=O)Nc2ccc3c(c2)C(=O)c2ccccc2C3=O)c1,inconclusive: -40.4%

# Three of the compounds above, with tabs.
row	Structure (SMILES)	activity change (PNC), negative = inhibition
17	O=C(Nc1sc2c(c1-c1nc3ccccc3[nH]1)CCCC2)C1CC1	inconclusive: -30.7%
18	COCCCNC(=O)CN1CCN(Cc2ccc(Cl)cc2)C1=O	inactive: -18.1%
19	O=C1CC(Sc2ncccn2)C(=O)N1c1ccccc1 (stereo not drawn)	inconclusive: -66.1%

# Following part:

row,Structure (SMILES),"activity change (PNC), negative = inhibition"
1,COC(=O)c1cc(C)sc1NC(=O)C1CC=CCC1C(=O)O (stereo not drawn),inactive: 50.6%
2,O=C(CCc1nc2ccccc2c(=O)[nH]1)OCc1nnc(-c2ccccc2)o1,inconclusive: -41%
3,O=C(CC1SC(=Nc2ccccc2)N(Cc2ccccn2)C1=O)Nc1ccc(Br)cc1 (stereo not drawn),inconclusive: -60.2%
4,CN(C)S(=O)(=O)c1cccc(NC(=O)c2cc3ccccc3o2)c1,inconclusive: -46.5%
5,COc1ccc2nc(NC(=O)C3CCCN3S(=O)(=O)c3ccc(C)cc3)sc2c1 (stereo not drawn),inconclusive: -50.6%
6,Cc1[nH]c2ccccc2c1/C=C(\C#N)C(=O)NCc1ccccc1,inconclusive: -62.8%
7,Cc1cc(C)nc(N2CCC(C(=O)NCc3cccc(C(F)(F)F)c3)CC2)n1,inconclusive: -55.4%
8,Cc1cc(Cl)c(S(=O)(=O)Nc2ccc3c(c2)OCCO3)cc1OCC(N)=O,active: -121%
9,Cn1c(SCC(=O)Nc2ccc3nc(SCC(=O)NC4CC4)sc3c2)nnc1-c1ccccc1,inconclusive: -33.4%
10,Cc1occc1C(=O)Nc1cccc(C(=O)NCc2ccccc2)c1,inactive: -29%
11,COc1ccc([N+](=O)[O-])cc1NC(=O)Nc1ccccc1,inconclusive: -55.4%
12,COc1cc2c(cc1OC)CN(C(=O)CSc1nc(N)c(C#N)cc1C#N)CC2,inconclusive: -30.5%
13,CCOC(=O)/C=c1\s/c(=C\c2c(OC)ccc3ccccc23)c(=O)n1CC(=O)NCC1CCCO1 (stereo not drawn),inactive: 5.08%
14,CCOC(=O)N/N=C/c1cn(Cc2ccc(Cl)cc2)c2ccccc12,active: -105%
15,CCCCC(=O)OCc1nc(N)nc(Nc2ccccc2C)n1,inactive: 32%
16,CCCCCn1c(C(C)NC(=O)CCC)nc2ccccc21 (stereo not drawn),inactive: 26%
17,CCOc1ccc(-c2nc(CSc3nnc(N)s3)cs2)cc1OC,active: -101%
18,CCc1ccc2c(CN3CCN(S(=O)(=O)c4cccs4)CC3)cc(=O)oc2c1,inconclusive: -79%
19,Cc1cccc(NC(=S)NCc2cccn2C)c1,inconclusive: -46.6%
20,Cc1ccc2cc3cc(C(=O)N(CC(=O)NC4CCCC4)c4cccc(C)c4C)sc3nc2c1,active: -106%

row,Structure (SMILES),"activity change (PNC), negative = inhibition"
1,Cc1c(C(=O)Nc2ccncc2)sc2nc(-c3ccc(F)cc3)cn12,inconclusive: -64.7%
2,COC(=O)/C(=N\Nc1ccc(Cl)cc1)Sc1nnc(-c2ccc(OC)cc2)n1C,inconclusive: -57.4%
3,O=C(O)c1ccccc1-c1nc2ccccc2n1-c1ccccc1,active: -109%
4,COc1ccc(CN=C(NS(=O)(=O)c2cccs2)SC)cc1,inconclusive: -33.8%
5,COc1ccc(CCN2C(=O)CC(NNC(=O)c3ccc(F)cc3)C2=O)cc1OC (stereo not drawn),inconclusive: -61.5%
6,Cc1cccc(Oc2nc(-c3cccc([N+](=O)[O-])c3)nc3ccccc23)c1C,inactive: -2.11%
7,Cc1cc(C)cc(NC(=O)CCC(=O)Nc2cc(C)on2)c1,active: -100%
8,COc1cccc(OCC(O)CO)c1 (stereo not drawn),inactive: 31.7%
9,Cc1cc(C)nc(SCCc2ccncc2)n1,inconclusive: -52.8%
10,COCCNC(=O)C1CCN(S(=O)(=O)c2ccccc2)CC1,inactive: 11%
11,CCOc1ccc(N2C(=O)CC(N)C2=O)cc1 (stereo not drawn),inconclusive: -75.5%
12,COc1cc(C=O)ccc1OCc1c(C)noc1C,inactive: 2.65%
13,COc1cc(C(=O)CSc2nnc(-c3ccc(O)cc3)n2CC2CCCO2)ccc1NC(C)=O (stereo not drawn),inconclusive: -38.5%
14,COc1ccc(S(=O)(=O)N2CCCN(Cc3cccc(F)c3)CC2)cc1,inconclusive: -77.4%
15,Cc1ccc(OCC(=O)N2N=C(C(F)(F)F)CC2(O)C(C)(C)C)cc1C (stereo not drawn),inactive: 23.8%
16,CCc1ccc(N2C(=O)C3C4CCC(C4=C(C)C)C3C2=O)cc1 (stereo not drawn),inconclusive: -41.8%
17,Cc1cccc(NC(=O)Nc2cccc(F)c2)n1,inconclusive: -59.2%
18,N#CC1(c2ccc(NC(=O)c3ccccc3F)cc2)CCCC1,inconclusive: -36.9%
